Data from the supplement of paper PMC4604168 (melanoma cell lines).
Some of the results follow. Repeats are few or missing, and single values can be far off.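 The apoptosis fraction was the count of cleaved-PARP antibody-stained nuclei relative to all DNA-stained nuclei, imaged in 1,536-well plates. Screening doses were set so most cells survived, and baseline and induced cleaved-PARP levels vary greatly across cell lines.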

Each compound was assayed on SkMel30 (assay: cleaved PARP positive nuclei fraction relative to DMSO control; melanoma cells; higher = more apoptosis). Conditions: library dose: low library concentration; 72 h.

| SMILES | cleaved PARP positive nuclei fraction [%] |
| --- | --- |
| Cc1cn(-c2cc(NC(=O)c3ccc(C)c(Nc4nccc(-c5cccnc5)n4)c3)cc(C(F)(F)F)c2)cn1 [nilotinib] + O=C(Nc1cccc(Cl)c1)Nc1ncc(CCNc2ncnc3ccsc23)s1 [SNS314] (first compound 0.2 µM, partner dose 0.0008 µM) | 55.5 |
| Cc1ccc(Nc2nccc(N(C)c3ccc4c(C)n(C)nc4c3)n2)cc1S(N)(=O)=O [Pazopanib] + O=S(=O)(c1ccccc1)N(CC(F)(F)F)c1ccc(C(O)(C(F)(F)F)C(F)(F)F)cc1 [T0901317] (first compound 0.4 µM, partner dose 1.4 µM) | 46.8 |
| CCCCCCCCCCCCCCCCCCOP(=O)([O-])OC1CC[N+](C)(C)CC1 [Perifosine] + CC(C)(C)c1cnc(CSc2cnc(NC(=O)C3CCNCC3)s2)o1 [SNS-032] (first compound 0.4 µM, partner dose 0.01 µM) | 118 |
